Laboratory results: the supplement of paper PMC11732987, “Enantioselective OTUD7B fragment discovery through chemoproteomics screening and high-throughput optimisation” (Communications Chemistry, 2025)
The other results are listed elsewhere or left out. The data scatter; read single values as rough.

Amino acid sequences for entries named in this document (tags omitted). A change or cut given only in a name is not applied to a line headed by its entry. Residues count along the entry.
UniProt Q96DP5: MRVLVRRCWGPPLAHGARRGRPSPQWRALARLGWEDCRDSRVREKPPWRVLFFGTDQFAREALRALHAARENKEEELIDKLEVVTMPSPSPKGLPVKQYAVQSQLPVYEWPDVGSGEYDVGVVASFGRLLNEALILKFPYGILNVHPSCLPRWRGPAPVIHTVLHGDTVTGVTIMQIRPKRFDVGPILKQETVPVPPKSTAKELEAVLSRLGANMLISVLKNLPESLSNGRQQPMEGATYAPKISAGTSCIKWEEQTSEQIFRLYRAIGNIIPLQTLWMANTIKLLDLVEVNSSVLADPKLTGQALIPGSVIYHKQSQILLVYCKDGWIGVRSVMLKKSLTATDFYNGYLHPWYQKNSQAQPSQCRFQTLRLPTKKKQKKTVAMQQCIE
UniProt Q765P7, 610-632: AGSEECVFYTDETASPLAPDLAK
UniProt P54920: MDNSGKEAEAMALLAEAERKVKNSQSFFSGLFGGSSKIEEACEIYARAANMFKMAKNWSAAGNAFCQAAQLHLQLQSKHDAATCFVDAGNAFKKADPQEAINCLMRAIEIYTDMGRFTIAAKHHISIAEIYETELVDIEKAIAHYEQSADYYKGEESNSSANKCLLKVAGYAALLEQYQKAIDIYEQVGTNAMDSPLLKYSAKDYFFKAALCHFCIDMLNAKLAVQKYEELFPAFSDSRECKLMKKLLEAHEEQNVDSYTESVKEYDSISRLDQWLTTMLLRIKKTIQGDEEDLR
UniProt Q9HD67, whole entry, looked up: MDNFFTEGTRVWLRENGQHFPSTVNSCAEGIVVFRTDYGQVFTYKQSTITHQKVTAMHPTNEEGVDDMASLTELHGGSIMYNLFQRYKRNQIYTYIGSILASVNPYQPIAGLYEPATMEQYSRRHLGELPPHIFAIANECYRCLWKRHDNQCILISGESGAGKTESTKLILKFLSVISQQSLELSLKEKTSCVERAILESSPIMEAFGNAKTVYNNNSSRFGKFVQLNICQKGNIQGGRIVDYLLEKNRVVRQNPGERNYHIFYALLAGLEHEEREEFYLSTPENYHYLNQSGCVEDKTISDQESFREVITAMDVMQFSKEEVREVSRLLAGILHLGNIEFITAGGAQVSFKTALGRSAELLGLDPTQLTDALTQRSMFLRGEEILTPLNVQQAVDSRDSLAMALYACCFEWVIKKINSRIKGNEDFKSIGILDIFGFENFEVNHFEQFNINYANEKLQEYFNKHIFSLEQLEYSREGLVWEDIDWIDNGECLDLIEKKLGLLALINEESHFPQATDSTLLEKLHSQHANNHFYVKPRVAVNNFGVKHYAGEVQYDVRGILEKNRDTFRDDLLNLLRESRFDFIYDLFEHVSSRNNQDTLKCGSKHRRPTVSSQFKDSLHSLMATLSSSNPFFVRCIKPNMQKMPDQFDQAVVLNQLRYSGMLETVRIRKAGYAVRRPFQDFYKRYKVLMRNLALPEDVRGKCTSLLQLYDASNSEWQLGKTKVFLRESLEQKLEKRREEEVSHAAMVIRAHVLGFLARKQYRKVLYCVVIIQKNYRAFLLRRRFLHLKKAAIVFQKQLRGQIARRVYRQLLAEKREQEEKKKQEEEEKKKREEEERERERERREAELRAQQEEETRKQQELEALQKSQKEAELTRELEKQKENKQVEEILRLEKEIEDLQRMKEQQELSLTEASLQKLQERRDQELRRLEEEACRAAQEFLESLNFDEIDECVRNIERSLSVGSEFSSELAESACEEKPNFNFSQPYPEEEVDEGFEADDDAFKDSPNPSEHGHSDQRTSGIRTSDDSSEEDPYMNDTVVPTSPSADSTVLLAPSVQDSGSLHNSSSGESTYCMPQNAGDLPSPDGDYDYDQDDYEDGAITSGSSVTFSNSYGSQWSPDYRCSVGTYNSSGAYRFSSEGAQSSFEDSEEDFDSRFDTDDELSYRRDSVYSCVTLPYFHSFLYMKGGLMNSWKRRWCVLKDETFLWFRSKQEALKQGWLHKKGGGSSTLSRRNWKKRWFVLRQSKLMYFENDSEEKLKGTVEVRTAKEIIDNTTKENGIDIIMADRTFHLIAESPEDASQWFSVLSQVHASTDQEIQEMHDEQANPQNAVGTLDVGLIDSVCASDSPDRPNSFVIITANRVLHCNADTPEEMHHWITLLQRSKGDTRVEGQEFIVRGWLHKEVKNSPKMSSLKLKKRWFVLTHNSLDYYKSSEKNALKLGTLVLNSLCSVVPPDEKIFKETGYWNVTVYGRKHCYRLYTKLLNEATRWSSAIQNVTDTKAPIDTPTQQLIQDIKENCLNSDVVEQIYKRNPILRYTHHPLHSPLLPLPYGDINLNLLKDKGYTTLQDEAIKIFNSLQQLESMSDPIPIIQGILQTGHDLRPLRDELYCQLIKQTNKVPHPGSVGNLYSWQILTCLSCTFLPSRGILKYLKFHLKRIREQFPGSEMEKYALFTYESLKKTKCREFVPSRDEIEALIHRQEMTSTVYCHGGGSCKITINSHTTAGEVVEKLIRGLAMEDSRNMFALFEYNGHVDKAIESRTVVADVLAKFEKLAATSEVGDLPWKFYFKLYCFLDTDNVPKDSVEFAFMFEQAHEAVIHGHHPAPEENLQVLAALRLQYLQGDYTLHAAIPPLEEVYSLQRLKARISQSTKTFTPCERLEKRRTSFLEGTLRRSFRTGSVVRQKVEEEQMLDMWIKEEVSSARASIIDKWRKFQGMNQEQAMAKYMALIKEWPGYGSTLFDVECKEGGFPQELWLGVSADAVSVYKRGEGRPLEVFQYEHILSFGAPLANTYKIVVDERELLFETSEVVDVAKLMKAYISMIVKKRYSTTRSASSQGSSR
UniProt P49914: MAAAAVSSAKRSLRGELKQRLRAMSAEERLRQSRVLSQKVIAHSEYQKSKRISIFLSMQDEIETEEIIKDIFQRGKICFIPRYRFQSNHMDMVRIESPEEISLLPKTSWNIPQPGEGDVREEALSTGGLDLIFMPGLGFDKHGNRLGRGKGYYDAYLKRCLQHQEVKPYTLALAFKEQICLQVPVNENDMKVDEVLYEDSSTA
UniProt Q13614, whole entry, looked up: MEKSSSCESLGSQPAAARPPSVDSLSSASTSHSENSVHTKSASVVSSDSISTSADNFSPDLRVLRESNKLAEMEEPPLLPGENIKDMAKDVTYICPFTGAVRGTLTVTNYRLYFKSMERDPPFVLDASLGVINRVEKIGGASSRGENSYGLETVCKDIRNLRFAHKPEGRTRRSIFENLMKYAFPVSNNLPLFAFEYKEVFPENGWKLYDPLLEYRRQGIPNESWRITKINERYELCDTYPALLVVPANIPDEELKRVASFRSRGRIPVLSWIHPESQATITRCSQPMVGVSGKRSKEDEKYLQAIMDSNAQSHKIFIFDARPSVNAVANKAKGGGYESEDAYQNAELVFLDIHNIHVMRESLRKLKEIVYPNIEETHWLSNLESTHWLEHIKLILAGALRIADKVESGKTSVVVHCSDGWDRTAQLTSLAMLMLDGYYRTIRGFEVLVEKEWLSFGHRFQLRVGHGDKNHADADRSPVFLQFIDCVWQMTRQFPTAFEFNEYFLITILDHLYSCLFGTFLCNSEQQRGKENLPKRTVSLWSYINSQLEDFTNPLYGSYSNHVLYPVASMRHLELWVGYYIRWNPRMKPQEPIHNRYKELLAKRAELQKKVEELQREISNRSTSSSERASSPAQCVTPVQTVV
UniProt Q96I59: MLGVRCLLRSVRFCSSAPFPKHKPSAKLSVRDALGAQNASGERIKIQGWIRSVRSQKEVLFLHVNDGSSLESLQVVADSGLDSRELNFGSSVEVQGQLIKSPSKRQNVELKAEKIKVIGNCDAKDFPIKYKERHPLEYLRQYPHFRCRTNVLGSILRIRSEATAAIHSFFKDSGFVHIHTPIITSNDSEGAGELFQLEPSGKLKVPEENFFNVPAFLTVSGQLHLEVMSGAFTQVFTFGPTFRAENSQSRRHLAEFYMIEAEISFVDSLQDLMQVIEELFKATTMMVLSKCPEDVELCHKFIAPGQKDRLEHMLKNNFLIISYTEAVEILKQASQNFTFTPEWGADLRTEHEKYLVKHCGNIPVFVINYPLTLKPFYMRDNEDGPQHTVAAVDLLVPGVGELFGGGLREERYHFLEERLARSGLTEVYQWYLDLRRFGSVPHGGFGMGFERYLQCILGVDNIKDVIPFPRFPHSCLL
UniProt O94776: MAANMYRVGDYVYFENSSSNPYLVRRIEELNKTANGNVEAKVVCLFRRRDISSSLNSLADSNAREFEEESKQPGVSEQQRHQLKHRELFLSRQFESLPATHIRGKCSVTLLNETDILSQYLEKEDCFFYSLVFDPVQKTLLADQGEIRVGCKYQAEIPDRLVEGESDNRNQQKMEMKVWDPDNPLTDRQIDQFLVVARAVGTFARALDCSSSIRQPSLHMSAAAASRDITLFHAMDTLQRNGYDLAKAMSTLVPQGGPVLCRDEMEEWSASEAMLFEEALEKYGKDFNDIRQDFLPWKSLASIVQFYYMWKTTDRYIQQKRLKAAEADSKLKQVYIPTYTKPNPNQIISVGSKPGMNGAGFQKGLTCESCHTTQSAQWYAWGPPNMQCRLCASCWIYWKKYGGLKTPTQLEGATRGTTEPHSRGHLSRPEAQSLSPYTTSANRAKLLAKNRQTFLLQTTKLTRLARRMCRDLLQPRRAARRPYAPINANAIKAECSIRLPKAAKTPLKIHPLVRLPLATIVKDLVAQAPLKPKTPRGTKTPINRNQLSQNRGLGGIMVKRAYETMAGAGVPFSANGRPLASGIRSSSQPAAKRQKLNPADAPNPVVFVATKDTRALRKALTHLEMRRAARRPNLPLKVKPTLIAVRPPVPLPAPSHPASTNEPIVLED
UniProt P10244: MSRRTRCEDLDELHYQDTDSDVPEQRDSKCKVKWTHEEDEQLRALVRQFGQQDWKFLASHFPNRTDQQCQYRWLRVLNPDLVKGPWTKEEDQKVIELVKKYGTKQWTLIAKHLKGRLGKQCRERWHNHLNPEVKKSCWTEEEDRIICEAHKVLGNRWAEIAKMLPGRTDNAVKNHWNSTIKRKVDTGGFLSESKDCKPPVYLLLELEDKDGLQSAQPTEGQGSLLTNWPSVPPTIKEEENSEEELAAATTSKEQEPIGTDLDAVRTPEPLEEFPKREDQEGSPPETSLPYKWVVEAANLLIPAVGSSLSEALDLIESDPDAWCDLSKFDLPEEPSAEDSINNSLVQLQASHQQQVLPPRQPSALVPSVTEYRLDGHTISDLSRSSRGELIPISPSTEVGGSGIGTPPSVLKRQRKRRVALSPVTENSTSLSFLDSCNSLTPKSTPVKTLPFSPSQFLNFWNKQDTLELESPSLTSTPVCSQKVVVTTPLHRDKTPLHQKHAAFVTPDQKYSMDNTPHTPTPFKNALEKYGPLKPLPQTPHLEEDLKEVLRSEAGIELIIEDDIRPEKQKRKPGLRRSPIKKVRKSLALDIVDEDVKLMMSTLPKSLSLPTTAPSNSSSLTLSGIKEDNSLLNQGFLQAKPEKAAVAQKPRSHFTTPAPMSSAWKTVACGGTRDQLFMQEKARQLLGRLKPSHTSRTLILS
UniProt Q6N069: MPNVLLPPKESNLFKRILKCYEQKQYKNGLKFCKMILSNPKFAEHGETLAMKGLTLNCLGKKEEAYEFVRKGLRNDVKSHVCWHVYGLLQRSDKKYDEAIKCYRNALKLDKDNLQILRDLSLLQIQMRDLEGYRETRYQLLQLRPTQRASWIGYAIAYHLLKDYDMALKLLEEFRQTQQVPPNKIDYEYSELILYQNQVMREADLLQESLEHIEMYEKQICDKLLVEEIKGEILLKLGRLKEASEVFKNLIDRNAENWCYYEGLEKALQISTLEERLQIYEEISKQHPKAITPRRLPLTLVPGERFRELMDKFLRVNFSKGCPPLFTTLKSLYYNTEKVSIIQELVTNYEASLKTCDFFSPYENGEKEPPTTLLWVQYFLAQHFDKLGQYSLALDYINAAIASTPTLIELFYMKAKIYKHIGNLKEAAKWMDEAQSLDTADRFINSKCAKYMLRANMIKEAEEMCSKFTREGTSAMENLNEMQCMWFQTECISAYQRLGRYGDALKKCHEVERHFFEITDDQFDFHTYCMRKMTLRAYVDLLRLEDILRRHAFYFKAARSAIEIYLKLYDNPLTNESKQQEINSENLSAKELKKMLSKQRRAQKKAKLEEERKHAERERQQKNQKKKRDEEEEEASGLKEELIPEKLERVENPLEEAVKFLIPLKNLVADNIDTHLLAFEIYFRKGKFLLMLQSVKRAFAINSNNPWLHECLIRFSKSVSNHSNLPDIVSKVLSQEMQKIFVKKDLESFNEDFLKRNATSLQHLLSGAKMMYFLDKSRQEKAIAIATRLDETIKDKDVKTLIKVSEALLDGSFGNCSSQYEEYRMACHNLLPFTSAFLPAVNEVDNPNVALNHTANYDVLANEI

Legend:
[1] = compound: ClCC(=O)N[C@@H]1CCCc2ccccc12; assay: log2 mean competition ratio of IA-DTB cysteine labelling (DMSO/compound) (log2 ratio); higher = stronger cysteine engagement by compound; details: treatment time: 4 h, cell line lysate: HEK293T
Procedure: (§1)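 IA-DTB competitive cysteine chemoproteomics in HEK293T RIPA lysate. Lysates were treated with compound 29 or 30 at 50 or 200 µM for 4 h, then IA-DTB (500 µM, 1 h), trypsin-digested, NeutrAvidin-enriched and analysed by diaPASEF. Competition ratio = intensity DMSO / intensity compound (n=4 treated, n=64 DMSO); binding: mean log2 CR ≥ 1 and p ≤ 0.05 plus QC filters. Target is the cysteine site.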

[2] = compound: ClCC(=O)N[C@H]1CCCc2ccccc12; assay: as above; details: treatment time: 4 h, cell line lysate: HEK293T
Procedure: as §1

Target	log2 mean competition ratio ([1]; 50 µM)	log2 mean competition ratio ([1]; 200 µM)	log2 mean competition ratio ([2]; 50 µM)	log2 mean competition ratio ([2]; 200 µM)
MTFMT C365 (UniProt Q96DP5)	0.0178	0.527	0.189	0.629
MTSS2 C615 (UniProt Q765P7)	-0.513	-0.384	0.311	-0.163
MTA1 C68 (UniProt Q13330)	0.377	-0.178	0.65	-0.229
MTFMT C250 (UniProt Q96DP5)	-0.0495	-0.0162	0.366	0.0354
NAPA C84 (UniProt P54920)	-0.165	-0.0775	0.022	-0.116
MTX1 C326 (UniProt Q13505)	0.239	-0.216	0.372	-0.00997
NARS1 C537	-0.126	-0.163	-0.0672	-0.166
MYCBP2 C1497 (UniProt O75592)	-0.205	-0.0774	0.684	0.215
MYO10 C1874 (UniProt Q9HD67)	-0.0925	0.109	-0.474	0.264
MTHFS C180 (UniProt P49914)	-0.012	0.043	0.778	0.945
MRPS18A C118 (UniProt Q9NVS2)	-0.235	0.0817	-0.0871	0.0171
MTMR2 C284 (UniProt Q13614)	-0.0164	-0.0674	-0.288	-0.173
N4BP2 C1764 (UniProt Q86UW6)	0.269	-0.125	0.466	-0.191
MYCBP2 C1169 (UniProt O75592)	0.00758	-0.0503	0.325	0.0784
MSH3 C166 (UniProt P20585)	0.276	0.239	0.714	-0.0919
MSH3 C803 (UniProt P20585)	0.0872	-0.125	0.797	-0.395
NARS2 C475 (UniProt Q96I59)	-0.11	0.182	-0.463	0.15
MTA2 C261 (UniProt O94776)	0.411	0.323	0.153	0.217
MTARC2 C299	-0.0141	-0.0349	0.247	0.0632
MYBL2 C69 (UniProt P10244)	0.132	0.306	0.162	0.0356
NAA16 C259 (UniProt Q6N069)	0.271	-0.396	0.598	-0.0437
MTMR14 C429 (UniProt Q8NCE2)	-0.109	-0.152	0.0695	0.0224

4 entries from above, as a markdown table.

| Target | log2 mean competition ratio ([1]; 50 µM) | log2 mean competition ratio ([1]; 200 µM) | log2 mean competition ratio ([2]; 50 µM) | log2 mean competition ratio ([2]; 200 µM) |
| --- | --- | --- | --- | --- |
| MTSS2 C615 (UniProt Q765P7) | -0.513 | -0.384 | 0.311 | -0.163 |
| MTA1 C68 (UniProt Q13330) | 0.377 | -0.178 | 0.65 | -0.229 |
| MTFMT C250 (UniProt Q96DP5) | -0.0495 | -0.0162 | 0.366 | 0.0354 |
| NAPA C84 (UniProt P54920) | -0.165 | -0.0775 | 0.022 | -0.116 |
